PubChem BioAssay AID1259291 – Sanger Institute – 2017
The whole screen tested 794 reagents; below is an unselected part. 15 of them (1.9%) were called active. 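Calls rest on knock-down alone; drug synergy scores do not affect them; drugs added a day post-transfection, DMSO vehicle as comparison.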 Further read-outs or replicates are left out here. No sequences are given here. The record does not give: the amount of reagent, the time to read-out.

Aim: 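Search for gene knock-downs that act synergistically alongside anchor drugs to kill cells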 (primary screen)
Cell system: HT29 human colorectal cancer cells
Reagent: siRNA pool against human genes
Treatment: anchor drugs added a day after transfection: BYL719 at 1 µM, cetuximab at 5 µg/ml or trametinib at 10 nM, or DMSO vehicle alone
Read-out: 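Cell viability as a fraction of the non-targeting pool, mean of replicates, robust z-scores from control wells; synergy scores for BYL719 (1 µM), cetuximab (5 µg/ml), trametinib (10 nM)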
Direction: robust z-score, knock-down alone: higher = more viable cells
Active means: 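a knock-down alone scoring under -3 on robust z-score is called essential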
Calls: active = essential (knock-down alone); inactive = no change alone

What is on record for LTK (GeneID 4058) [SID135620624]?
robust z-score, knock-down alone: 0.552; call: inactive

What did the screen give for MAPK9 (GeneID 5601) [SID56478662]?
robust z-score, knock-down alone: 0.552; call: inactive

Which result is listed for GALK2 (GeneID 2585) [SID56479099]?
robust z-score, knock-down alone: -0.381; call: inactive

With MYLK4 (GeneID 340156) [SID152150692], what was measured?
robust z-score, knock-down alone: 0.552; call: inactive

With WNK2 (GeneID 65268) [SID56479037], how do the results read?
robust z-score, knock-down alone: 0.552; call: inactive

Which result is listed for CKB (GeneID 1152) [SID56479084]?
robust z-score, knock-down alone: 0.148; call: inactive

With CHEK2 (GeneID 11200) [SID152153325], what does the deposit list?
robust z-score, knock-down alone: 0.552; call: inactive

With NEK3 (GeneID 4752) [SID152154962], what was measured?
robust z-score, knock-down alone: -0.242; call: inactive

With PKIA (GeneID 5569) [SID56479258], what was measured?
robust z-score, knock-down alone: -0.383; call: inactive

For PRKAR1A (GeneID 5573) [SID135621428], what was measured?
robust z-score, knock-down alone: 0.0416; call: inactive

What is on record for LMTK1 (GeneID 9625) [SID152151616]?
robust z-score, knock-down alone: -0.869; call: inactive

With TAOK3 (GeneID 51347) [SID152152167], what was measured?
robust z-score, knock-down alone: 0.552; call: inactive

What did the screen give for MAK (GeneID 4117) [SID56478884]?
robust z-score, knock-down alone: 0.552; call: inactive

What did the screen give for CDC42BPB (GeneID 9578) [SID152149037]?
robust z-score, knock-down alone: -0.284; call: inactive

With PSKH1 (GeneID 5681) [SID135620975], how do the results read?
robust z-score, knock-down alone: 0.552; call: inactive

Which result is listed for MAPK11 (GeneID 5600) [SID56478748]?
robust z-score, knock-down alone: 0.552; call: inactive

Which result is listed for TRIB3 (GeneID 57761) [SID56478723]?
robust z-score, knock-down alone: -1.32; call: inactive

How did the screen score MYO3B (GeneID 140469) [SID152152883]?
robust z-score, knock-down alone: 0.552; call: inactive

How did the screen score TP53 (GeneID 7157) [SID135620665]?
robust z-score, knock-down alone: -1.07; call: inactive

2 of these entries, reformatted:
gene knocked down	PubChem SID	robust z-score, knock-down alone	call
WNK2 (GeneID 65268)	SID56479037	0.552	inactive
CKB (GeneID 1152)	SID56479084	0.148	inactive
